From US10702592B2, “Peptides and combination of peptides for use in immunotherapy against NHL and other cancers” (Immatics Biotechnologies GmbH, priority 2016, dated 2020)

Tests used:
NHL samples = test: Identification and label-free LC-MS quantitation of HLA-presented peptides: presentation profile/score, NHL vs normal tissues; parameters: species or system human; key: very highly over-presented on tumors compared to a panel of normal tissues (+++); highly over-presented on tumors compared to a panel of normal tissues (++); over-presented on tumors compared to a panel of normal tissues (+); details: NHL tumors compared to a panel of normal tissues
[1] = test system: other tumor types (tumor samples vs normal tissues); test: LC-MS detection / over-presentation of peptides on additional tumor types; parameters: species or system human; details: for Other relevant organs/diseases: additional tumor types on which the peptide was found: over-presented on more than 5% of measured tumor samples, or presented on more than 5% with ratio of geometric means tumor vs normal tissues larger than 3; for Other relevant organs / diseases (additional tumor types with over-presentation): over-presented on >5% of measured tumor samples, or presented on >5% with ratio of geometric means tumor vs normal >3

183 (VLFETVLTI; listed as Homo sapiens) [compound 183]
Peptide Presentation (NHL samples): +
Other relevant organs/diseases [1]: CLL, AML, Urinary bladder cancer, Uterine Cancer
Other relevant organs / diseases (additional tumor types with over-presentation) [1]: HNSCC

201 (YLNISQVNV; listed as Homo sapiens) [compound 201]
Peptide Presentation (NHL samples): ++
Other relevant organs/diseases [1]: CLL
Other relevant organs / diseases (additional tumor types with over-presentation) [1]: AML

67 (LLATVNVAL; listed as Homo sapiens) [compound 67]
Peptide Presentation (NHL samples): +++
Other relevant organs/diseases [1]: CLL, Uterine Cancer
Other relevant organs / diseases (additional tumor types with over-presentation) [1]: HNSCC

233 (MLEVHIPSV; listed as Homo sapiens) [compound 233]
Peptide Presentation (NHL samples): ++
Other relevant organs/diseases [1]: CLL

20 (YLIAGGDRWL; listed as Homo sapiens) [compound 20]
Peptide Presentation (NHL samples): +++
Other relevant organs/diseases [1]: NSCLC, RCC, CLL, BRCA, Melanoma

186 (FLDVSRDFV; listed as Homo sapiens) [compound 186]
Peptide Presentation (NHL samples): +
Other relevant organs/diseases [1]: SCLC, CLL

274 (KLLNLISKL; listed as Homo sapiens) [compound 274]
Peptide Presentation (NHL samples): +++
Other relevant organs/diseases [1]: AML

244 (ILEPFLPAV; listed as Homo sapiens) [compound 244]
Peptide Presentation (NHL samples): +
Other relevant organs/diseases [1]: Melanoma, Uterine Cancer
Other relevant organs / diseases (additional tumor types with over-presentation) [1]: CLL, AML

106 (VLYELLQYI; listed as Homo sapiens) [compound 106]
Peptide Presentation (NHL samples): +++
Other relevant organs/diseases [1]: Gallbladder Cancer, Bile Duct Cancer
Other relevant organs / diseases (additional tumor types with over-presentation) [1]: HNSCC

97 (LLNFSPGNL; listed as Homo sapiens) [compound 97]
Peptide Presentation (NHL samples): +++
Other relevant organs/diseases [1]: CRC

82 (FLIDGSSSV; listed as Homo sapiens) [compound 82]
Peptide Presentation (NHL samples): +++
Other relevant organs/diseases [1]: CLL

31 (KLYDEESLL; listed as Homo sapiens) [compound 31]
Peptide Presentation (NHL samples): +++
Other relevant organs/diseases [1]: CLL, AML, Melanoma, Esophageal Cancer, Uterine Cancer

45 (FILDDSALYL; listed as Homo sapiens) [compound 45]
Peptide Presentation (NHL samples): +
Other relevant organs/diseases [1]: CLL, Uterine Cancer

253 (YSDDDVPSV; listed as Homo sapiens) [compound 253]
Peptide Presentation (NHL samples): +++
Other relevant organs/diseases [1]: NSCLC, SCLC, CLL, Melanoma, Esophageal Cancer, OC, Urinary bladder cancer, Uterine Cancer, Gallbladder Cancer, Bile Duct Cancer
Other relevant organs / diseases (additional tumor types with over-presentation) [1]: AML, HNSCC

104 (VLLGLPLLV; listed as Homo sapiens) [compound 104]
Peptide Presentation (NHL samples): +++
Other relevant organs/diseases [1]: CLL, AML

120 (VLLGTTWAL; listed as Homo sapiens) [compound 120]
Peptide Presentation (NHL samples): +++
Other relevant organs/diseases [1]: AML

252 (YLGDLIMAL; listed as Homo sapiens) [compound 252]
Peptide Presentation (NHL samples): +
Other relevant organs/diseases [1]: CLL
Other relevant organs / diseases (additional tumor types with over-presentation) [1]: AML

307 (FLLPVAVKL; listed as Homo sapiens) [compound 307]
Peptide Presentation (NHL samples): ++
Other relevant organs / diseases (additional tumor types with over-presentation) [1]: HNSCC

146 (GLLQQPPAL; listed as Homo sapiens) [compound 146]
Peptide Presentation (NHL samples): +++
Other relevant organs/diseases [1]: AML
Other relevant organs / diseases (additional tumor types with over-presentation) [1]: HNSCC

44 (FIIEEQSFL; listed as Homo sapiens) [compound 44]
Peptide Presentation (NHL samples): +++
Other relevant organs/diseases [1]: CLL, Esophageal Cancer, Gallbladder Cancer, Bile Duct Cancer
Other relevant organs / diseases (additional tumor types with over-presentation) [1]: AML, HNSCC

100 (RLIRTIAAI; listed as Homo sapiens) [compound 100]
Peptide Presentation (NHL samples): +++
Other relevant organs/diseases [1]: RCC
